From the supplement of paper PMC8728848
This is one part of the list.

Key:
Assay in all cases: glycan array binding signal (z-score within array); higher = stronger binding
Conditions in all cases: glycan notation: IUPAC condensed, linker removed
[1] = target: Neu5Ac(a2-3)Gal(b1-3)[Fuc(a1-4)]GlcNAc
In short: (§1)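 Glycan array binding is given as a within-array Z-score, which can be read as non-binding when negative. The arrays, 3228 of them, came from the Consortium for Functional Glycomics database and were retained only where the protein sequence was available. Z-scores were averaged across arrays of the same protein sequence at different concentrations or buffers and across linkers.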

[2] = target: Neu5Ac(a2-3)Gal(b1-3)[Fuc(a1-4)]GlcNAc(b1-3)Gal(b1-3)[Fuc(a1-4)]GlcNAc
In short: as §1

[3] = target: Neu5Ac(a2-3)Gal(b1-3)[Fuc(a1-4)]GlcNAc(b1-3)Gal(b1-4)[Fuc(a1-3)]GlcNAc
In short: as §1

[4] = target: Neu5Ac(a2-3)Gal(b1-3)[GlcNAc(b1-6)]GalNAc
In short: as §1

[5] = target: Neu5Ac(a2-3)Gal(b1-3)[Neu5Ac(a2-6)]GalNAc
In short: as §1

[6] = target: Neu5Ac(a2-3)Gal(b1-3)[Neu5Ac(a2-6)]GlcNAc(b1-3)[Fuc(a1-3)[Gal(b1-4)]GlcNAc(b1-6)]Gal(b1-4)Glc
In short: as §1

[7] = target: Neu5Ac(a2-3)Gal(b1-3)]Neu5Ac(a2-3)Gal(b1-4)]GlcNAc
In short: as §1

Neu5Ac(a2-3)Gal(b1-4)Glc = target: Neu5Ac(a2-3)Gal(b1-4)Glc
In short: as §1

[8] = target: Neu5Ac(a2-3)Gal(b1-4)GlcNAc
In short: as §1

[9] = target: Neu5Ac(a2-3)Gal(b1-4)GlcNAc(b1-2)Man
In short: as §1

[10] = target: Neu5Ac(a2-3)Gal(b1-4)GlcNAc(b1-2)Man(a1-3)[GlcNAc(b1-4)][Neu5Ac(a2-3)Gal(b1-4)GlcNAc(b1-2)Man(a1-6)]Man(b1-4)GlcNAc(b1-4)GlcNAc
In short: as §1

[11] = target: Neu5Ac(a2-3)Gal(b1-4)GlcNAc(b1-2)Man(a1-3)[Neu5Ac(a2-3)Gal(b1-4)GlcNAc(b1-2)Man(a1-6)]Man(b1-4)GlcNAc(b1-4)GlcNAc
In short: as §1

[12] = target: Neu5Ac(a2-3)Gal(b1-4)GlcNAc(b1-2)Man(a1-3)[Neu5Ac(a2-3)Gal(b1-4)GlcNAc(b1-2)Man(a1-6)]Man(b1-4)GlcNAc(b1-4)[Fuc(a1-6)]GlcNAc
In short: as §1

[13] = target: Neu5Ac(a2-3)Gal(b1-4)GlcNAc(b1-2)Man(a1-3)[Neu5Ac(a2-6)Gal(b1-4)GlcNAc(b1-2)Man(a1-6)]Man(b1-4)GlcNAc(b1-4)GlcNAc
In short: as §1

[14] = target: Neu5Ac(a2-3)Gal(b1-4)GlcNAc(b1-2)[Neu5Ac(a2-3)Gal(b1-4)GlcNAc(b1-4)]Man(a1-3)[GlcNAc(b1-4)][Neu5Ac(a2-3)Gal(b1-4)GlcNAc(b1-2)[Neu5Ac(a2-3)Gal(b1-4)GlcNAc(b1-6)]Man(a1-6)]Man(b1-4)GlcNAc(b1-4)GlcNAc
In short: as §1

[15] = target: Neu5Ac(a2-3)Gal(b1-4)GlcNAc(b1-2)[Neu5Ac(a2-3)Gal(b1-4)GlcNAc(b1-4)]Man(a1-3)[GlcNAc(b1-4)][Neu5Ac(a2-3)Gal(b1-4)GlcNAc(b1-4)Man(a1-6)]Man(b1-4)GlcNAc(b1-4)GlcNAc
In short: as §1

[16] = target: Neu5Ac(a2-3)Gal(b1-4)GlcNAc(b1-2)[Neu5Ac(a2-3)Gal(b1-4)GlcNAc(b1-6)]Man(a1-6)[Neu5Ac(a2-3)Gal(b1-4)GlcNAc(b1-2)Man(a1-3)]Man(b1-4)GlcNAc(b1-4)GlcNAc
In short: as §1

[17] = target: Neu5Ac(a2-3)Gal(b1-4)GlcNAc(b1-2)[Neu5Ac(a2-3)Gal(b1-4)GlcNAc(b1-6)]Man(a1-6)[Neu5Ac(a2-3)Gal(b1-4)GlcNAc(b1-2)Man(a1-3)][GlcNAc(b1-4)]Man(b1-4)GlcNAc(b1-4)GlcNAc
In short: as §1

[18] = target: Neu5Ac(a2-3)Gal(b1-4)GlcNAc(b1-3)Gal
In short: as §1

[19] = target: Neu5Ac(a2-3)Gal(b1-4)GlcNAc(b1-3)Gal(b1-3)GlcNAc
In short: as §1

[20] = target: Neu5Ac(a2-3)Gal(b1-4)GlcNAc(b1-3)Gal(b1-4)GlcNAc
In short: as §1

[21] = target: Neu5Ac(a2-3)Gal(b1-4)GlcNAc(b1-3)Gal(b1-4)GlcNAc(b1-2)Man(a1-3)[Neu5Ac(a2-3)Gal(b1-4)GlcNAc(b1-3)Gal(b1-4)GlcNAc(b1-2)Man(a1-6)]Man(b1-4)GlcNAc(b1-4)GlcNAc
In short: as §1

[22] = target: Neu5Ac(a2-3)Gal(b1-4)GlcNAc(b1-3)Gal(b1-4)GlcNAc(b1-3)Gal(b1-4)GlcNAc
In short: as §1

[23] = target: Neu5Ac(a2-3)Gal(b1-4)GlcNAc(b1-3)Gal(b1-4)GlcNAc(b1-3)Gal(b1-4)GlcNAc(b1-2)Man(a1-3)[Neu5Ac(a2-3)Gal(b1-4)GlcNAc(b1-3)Gal(b1-4)GlcNAc(b1-3)Gal(b1-4)GlcNAc(b1-2)Man(a1-6)]GalNAc
In short: as §1

[24] = target: Neu5Ac(a2-3)Gal(b1-4)GlcNAc(b1-3)Gal(b1-4)GlcNAc(b1-3)GalNAc
In short: as §1

[25] = target: Neu5Ac(a2-3)Gal(b1-4)GlcNAc(b1-3)Gal(b1-4)GlcNAc(b1-3)[Neu5Ac(a2-3)Gal(b1-4)GlcNAc(b1-3)Gal(b1-4)GlcNAc(b1-6)]GalNAc
In short: as §1

[26] = target: Neu5Ac(a2-3)Gal(b1-4)GlcNAc(b1-3)Gal(b1-4)GlcNAc(b1-6)[Gal(b1-3)]GalNAc
In short: as §1

[27] = target: Neu5Ac(a2-3)Gal(b1-4)GlcNAc(b1-3)Gal(b1-4)[Fuc(a1-3)]GlcNAc
In short: as §1

[28] = target: Neu5Ac(a2-3)Gal(b1-4)GlcNAc(b1-3)GalNAc
In short: as §1

[29] = target: Neu5Ac(a2-3)Gal(b1-4)GlcNAc(b1-3)[Neu5Ac(a2-3)Gal(b1-4)GlcNAc(b1-6)]GalNAc
In short: as §1

B1: GS13971A-bth-447-22-447 (Bacteroides thetaiotaomicron) (protein)
chain: EDVDNERSKGMFSASQSGFSTIEVYDLGPLNKIDLSIAKAGLEDTGGTVTFSVEQSLLDSLNNADGTSYQLLPPECYTIENATYSVSPGGDRRVTGGSLVYDPHKIYNLCGFDELKYVLPLRVSSTGTPMNSDRTATLYGFIVKEAIVRLASTGGDFVVEGGTTTSPMNLDTEISFENEWDLTTSFATKGADYVDNYNSANSTYYIPLPSDFYTLPDVTIAKGKTTGGSAISLLGETLPPGNYLLPVSLGGLSGQGDASINIDKETVANYFVIKQGGPINRDHWTVTANTEEKTGEVSAAYPHNGQTISLIDGEINTFWHSKWQGGEVAPPYEIILDMGKENSVSQLGLIARQNALTSMNLEIYAGDDGETWNLIGKYFFDGSIKTEQMVPVKACDARWIRIYIPTLGSGSSVGHLAEIYVYGTDK
glycan array binding signal (z-score) [1]: -0.724 | glycan array binding signal (z-score) [2]: 0.009 | glycan array binding signal (z-score) [3]: 0.015 | glycan array binding signal (z-score) [4]: 0.601 | glycan array binding signal (z-score) [5]: 0.217 | glycan array binding signal (z-score) [6]: -1.23 | glycan array binding signal (z-score) [7]: -0.166 | glycan array binding signal (z-score) (Neu5Ac(a2-3)Gal(b1-4)Glc): 0.359 | glycan array binding signal (z-score) [8]: -0.377 | glycan array binding signal (z-score) [9]: -1.12 | glycan array binding signal (z-score) [10]: -0.255 | glycan array binding signal (z-score) [11]: -0.197 | glycan array binding signal (z-score) [12]: -0.181 | glycan array binding signal (z-score) [13]: -0.746 | glycan array binding signal (z-score) [14]: -0.7 | glycan array binding signal (z-score) [15]: -0.553 | glycan array binding signal (z-score) [16]: 1.47 | glycan array binding signal (z-score) [17]: -0.94 | glycan array binding signal (z-score) [18]: -0.386 | glycan array binding signal (z-score) [19]: -0.335 | glycan array binding signal (z-score) [20]: 1.45 | glycan array binding signal (z-score) [21]: 0.477 | glycan array binding signal (z-score) [22]: -0.509 | glycan array binding signal (z-score) [23]: 2.81 | glycan array binding signal (z-score) [24]: -0.298 | glycan array binding signal (z-score) [25]: -1.13 | glycan array binding signal (z-score) [26]: -1.45 | glycan array binding signal (z-score) [27]: 0.405 | glycan array binding signal (z-score) [28]: -0.583 | glycan array binding signal (z-score) [29]: -0.884
